The results in this text go back to paper doi:10.1101/679936.

The target in the experiment is T1, FLAG-SREBP1a (UniProt P36956).
T1 sequence: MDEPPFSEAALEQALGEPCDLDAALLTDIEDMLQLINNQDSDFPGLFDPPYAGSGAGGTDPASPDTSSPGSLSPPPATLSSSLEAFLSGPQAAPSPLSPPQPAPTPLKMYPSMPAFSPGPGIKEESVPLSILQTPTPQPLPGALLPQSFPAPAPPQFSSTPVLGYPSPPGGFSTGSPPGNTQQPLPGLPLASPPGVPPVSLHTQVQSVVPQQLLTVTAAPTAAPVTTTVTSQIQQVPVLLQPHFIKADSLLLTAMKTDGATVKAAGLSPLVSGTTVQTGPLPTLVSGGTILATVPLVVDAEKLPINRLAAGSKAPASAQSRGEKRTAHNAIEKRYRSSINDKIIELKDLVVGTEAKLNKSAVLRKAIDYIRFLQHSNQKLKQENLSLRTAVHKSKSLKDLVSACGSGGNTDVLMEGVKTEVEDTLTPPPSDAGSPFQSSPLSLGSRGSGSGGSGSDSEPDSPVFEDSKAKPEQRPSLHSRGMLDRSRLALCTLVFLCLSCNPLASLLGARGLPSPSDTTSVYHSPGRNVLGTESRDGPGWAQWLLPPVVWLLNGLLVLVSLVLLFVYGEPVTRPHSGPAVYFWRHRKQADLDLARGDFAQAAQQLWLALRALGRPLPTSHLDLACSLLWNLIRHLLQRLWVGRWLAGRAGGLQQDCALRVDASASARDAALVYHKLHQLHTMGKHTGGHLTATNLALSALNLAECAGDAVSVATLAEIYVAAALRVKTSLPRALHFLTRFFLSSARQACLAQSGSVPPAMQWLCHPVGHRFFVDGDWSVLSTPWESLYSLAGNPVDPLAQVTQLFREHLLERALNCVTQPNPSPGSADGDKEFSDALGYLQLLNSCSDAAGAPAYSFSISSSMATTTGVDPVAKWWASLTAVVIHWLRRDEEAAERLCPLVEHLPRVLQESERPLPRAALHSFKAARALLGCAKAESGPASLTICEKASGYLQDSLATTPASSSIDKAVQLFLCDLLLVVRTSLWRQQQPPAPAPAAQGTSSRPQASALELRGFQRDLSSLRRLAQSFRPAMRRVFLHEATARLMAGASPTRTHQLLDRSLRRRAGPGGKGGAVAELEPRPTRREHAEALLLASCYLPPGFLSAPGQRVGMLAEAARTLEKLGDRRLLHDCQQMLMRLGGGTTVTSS
As to the kind of experiment: co-IP.

These are yes or no findings as the source states them, for the method shown. In cells and extracts the contact can be indirect. Some results given as binding are weak or reduced against the parent protein; the word gives no strength. Tags and fused reporters may be left off the sequences shown.

B1: Sac1, endogenous in HEK 293T (protein, UniProt Q9NTJ5 1-587)
chain: MATAAYEQLKLHITPEKFYVEACDDGADDVLTIDRVSTEVTLAVKKDVPPSAVTRPIFGILGTIHLVAGNYLIVITKKIKVGEFFSHVVWKATDFDVLSYKKTMLHLTDIQLQDNKTFLAMLNHVLNVDGFYFSTTYDLTHTLQRLSNTSPEFQEMSLLERADQRFVWNGHLLRELSAQPEVHRFALPVLHGFITMHSCSINGKYFDWILISRRSCFRAGVRYYVRGIDSEGHAANFVETEQIVHYNGSKASFVQTRGSIPVFWSQRPNLKYKPLPQISKVANHMDGFQRHFDSQVIIYGKQVIINLINQKGSEKPLEQTFATMVSSLGSGMMRYIAFDFHKECKNMRWDRLSILLDQVAEMQDELSYFLVDSAGQVVANQEGVFRSNCMDCLDRTNVIQSLLARRSLQAQLQRLGVLHVGQKLEEQDEFEKIYKNAWADNANACAKQYAGTGALKTDFTRTGKRTHLGLIMDGWNSMIRYYKNNFSDGFRQDSIDLFLGNYSVDELESHSPLSVPRDWKFLALPIIMVVAFSMCIICLLMAGDTWTETLAYVLFWGVASIGTFFIILYNGKDFVDAPRLVQKEKID
Consider B1, for which the binding result is on record as “binds”.
